Experimental data taken from the supplement of paper PMC12282887.
Structures can show the parent of a compound that is named as a salt. These are raw signals, not scaled to a control.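 Maximum concentrations were near the MIC for antimicrobials, 500 µM for most other compounds, and as high as 1 mM for known inducer-like compounds. Deletion strains began with a tenfold smaller inoculum, and wells with growth under 10% of the overall median counted as non-growing.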 Where a SMILES comes first, the peptide text is derived from it. Bridges are numbered along the chain shown (N, C = ends). [ ]: non-standard residue; d: D form. The star is where a group is joined. Heptanoyl(5-Me) = CCC(C)CCCC(=O)*; Dab = NCC[C@H](N)C(=O)O

Tested on: Escherichia coli BW25113
Assay: growth (OD600 area under curve, 8 h) (OD600 x h); higher = more growth
Procedure: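 E. coli BW25113 reporter strains (wild type, ΔmarA, ΔsoxS, Δrob, each carrying one of 8 lux reporter plasmids) were grown in 40 µl LB in 384-well plates at 37°C, 800 rpm, with each compound at 4 two-fold concentrations, in biological duplicates. Growth is the baseline-corrected OD600 area under the curve over 8 h (0-8 h WT, 1-9 h deletion strains).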

O=C(O)COCCN1CCN(C(c2ccccc2)c2ccc(Cl)cc2)CC1 (centres undefined) [Cetirizine dihydrochloride]
growth
Conditions | reporter plasmid: EVC | reporter plasmid: acrABp | reporter plasmid: marRABp | reporter plasmid: micFp | reporter plasmid: ompFp | reporter plasmid: robp | reporter plasmid: soxSp | reporter plasmid: tolCp
28.9 µg/ml, genetic background: wild type | 2.5 | 2.95 | 3.24 | 3.05 | 2.84 | 3.14 | 2.81 | 2.99
28.9 µg/ml, genetic background: ΔmarA | 2.91 | 3.76 | 3.35 | 2.93 | 3.08 | 3.1 | 2.46 | 2.8
28.9 µg/ml, genetic background: Δrob | 2.08 | 2.94 | 3.04 | 2.94 | 2.36 | 2.36 | 2.7 | 2.81
28.9 µg/ml, genetic background: ΔsoxS | 2.46 | 2.74 | 2.81 | 2.23 | 2.38 | 2.66 | 2.54 | 2.25
57.7 µg/ml, genetic background: wild type | 2.57 | 2.92 | 3.39 | 2.98 | 2.87 | 3.11 | 2.82 | 2.83
57.7 µg/ml, genetic background: ΔmarA | 2.92 | 4.01 | 3.43 | 2.63 | 3.27 | 3.13 | 2.56 | 2.75
57.7 µg/ml, genetic background: Δrob | 2.03 | 3.07 | 3.084 | 2.71 | 2.44 | 2.359 | 2.48 | 2.63
57.7 µg/ml, genetic background: ΔsoxS | 2.22 | 2.74 | 3.05 | 2.232 | 2.6 | 2.869 | 2.5 | 2.2
115.5 µg/ml, genetic background: wild type | 2.51 | 3.31 | 3.42 | 3 | 3.135 | 3.184 | 2.69 | 2.91
115.5 µg/ml, genetic background: ΔmarA | 2.73 | 4.1 | 3.44 | 2.71 | 3.37 | 3.37 | 2.52 | 2.95
115.5 µg/ml, genetic background: Δrob | 2.17 | 3.6 | 3.42 | 2.55 | 2.22 | 2.65 | 2.48 | 2.67
115.5 µg/ml, genetic background: ΔsoxS | 2.3 | 2.99 | 3.33 | 2.09 | 2.99 | 3.084 | 2.71 | 2.2241
230.9 µg/ml, genetic background: wild type | 2.688 | 2.95 | 3.24 | 2.932 | 2.87 | 3.05 | 2.62 | 2.95
230.9 µg/ml, genetic background: ΔmarA | 2.695 | 3.97 | 3.43 | 2.5606 | 3.1 | 3.58 | 2.39 | 2.65
230.9 µg/ml, genetic background: Δrob | 1.85 | 3.322 | 3.45 | 2.3 | 2.37 | 2.78 | 2.23 | 2.21
230.9 µg/ml, genetic background: ΔsoxS | 2.2 | 2.99 | 3.46 | 1.97 | 3.32 | 3.167 | 2.76 | 2.11

CCC(C)CCCC(=O)N[C@@H](CCN)C(=O)N[C@H](C(=O)N[C@@H](CCN)C(=O)N[C@H]1CCNC(=O)[C@H]([C@@H](C)O)NC(=O)[C@H](CCN)NC(=O)[C@H](CCN)NC(=O)[C@H](CC(C)C)NC(=O)[C@@H](CC(C)C)NC(=O)[C@H](CCN)NC1=O)[C@@H](C)O (stereo partly drawn) [Colistin] ({Heptanoyl(5-Me)}-[Dab]T[Dab][Dab][Dab][dL]L[Dab][Dab]T; lactam 4-C)
growth
Conditions | reporter plasmid: EVC | reporter plasmid: acrABp | reporter plasmid: marRABp | reporter plasmid: micFp | reporter plasmid: ompFp | reporter plasmid: robp | reporter plasmid: soxSp | reporter plasmid: tolCp
0.048 µg/ml, genetic background: wild type | 2.7 | 3.15 | 3.413 | 3.325 | 3.31 | 3.49 | 2.94 | 3.29
0.048 µg/ml, genetic background: ΔmarA | 3.01 | 4.16 | 3.743 | 3.11 | 3.52 | 3.74 | 2.7 | 2.66
0.048 µg/ml, genetic background: Δrob | 2.802 | 3.09 | 3.47 | 3.18 | 2.85 | 2.7 | 2.74 | 2.99
0.048 µg/ml, genetic background: ΔsoxS | 3.29 | 3.2 | 3.24 | 2.84 | 3.23 | 3.27 | 3.15 | 2.97
0.1 µg/ml, genetic background: wild type | 2.67 | 2.78 | 3.34 | 3.04 | 3.12 | 3.28 | 2.89 | 3.24
0.1 µg/ml, genetic background: ΔmarA | 3.01 | 4.32 | 3.63 | 2.81 | 3.47 | 3.81 | 2.74 | 2.48
0.1 µg/ml, genetic background: Δrob | 2.92 | 3.1475 | 3.18 | 2.94 | 2.69 | 2.83 | 2.8 | 2.99
0.1 µg/ml, genetic background: ΔsoxS | 3.15 | 3.33 | 3.28 | 2.95 | 3.55 | 3.13 | 3.18 | 3.01
0.19 µg/ml, genetic background: wild type | 2.59 | 2.87 | 3.39 | 2.45 | 3.16 | 3.24 | 2.73 | 3.24
0.19 µg/ml, genetic background: ΔmarA | 2.01 | 3.64 | 2.91 | 1.56 | 2.86 | 3.3 | 2.12 | 1.75
0.19 µg/ml, genetic background: Δrob | 2.6 | 2.84 | 2.77 | 2.15 | 2.39 | 1.95 | 1.32 | 2.16
0.19 µg/ml, genetic background: ΔsoxS | 2.76 | 2.82 | 2.96 | 2.61 | 3.34 | 3.05 | 3.01 | 2.78
0.38 µg/ml, genetic background: wild type | 1.71 | 1.53 | 1.64 | 0.653 | 0.577 | 1.39 | 1.14 | 2.4273
0.38 µg/ml, genetic background: ΔmarA | 0.000694 | 0.0209 | 0.0379 | -0.0588 | -0.00126 | 0.00429 | 0.31 | 0.0226
0.38 µg/ml, genetic background: Δrob | 0.000824 | -0.0284 | 0.311 | -0.0566 | -0.0953 | -0.0308 | -0.0151 | 0.177
0.38 µg/ml, genetic background: ΔsoxS | 0.872 | 0.585 | 0.43 | 0.0202 | 0.464 | 0.633 | 0.18 | 1.16

C[C@H]1c2cccc(O)c2C(=O)C2=C(O)[C@]3(O)C(=O)C(C(N)=O)=C(O)[C@@H](N(C)C)[C@@H]3[C@@H](O)[C@@H]21 [Doxycycline]
growth
Conditions | reporter plasmid: EVC | reporter plasmid: acrABp | reporter plasmid: marRABp | reporter plasmid: micFp | reporter plasmid: ompFp | reporter plasmid: robp | reporter plasmid: soxSp | reporter plasmid: tolCp
0.064 µg/ml, genetic background: wild type | 2.88 | 2.8 | 3.05 | 3.02 | 2.65 | 2.89 | 2.93 | 2.9
0.064 µg/ml, genetic background: ΔmarA | 2.86 | 4.14 | 3.4139 | 3.01 | 3.11 | 3.37 | 2.88 | 2.64
0.064 µg/ml, genetic background: Δrob | 2.41 | 3.13 | 3.1 | 3.04 | 2.43 | 2.31 | 2.84 | 2.99
0.064 µg/ml, genetic background: ΔsoxS | 2.96 | 2.93 | 2.96 | 2.61 | 2.99 | 3.02 | 2.96 | 2.69
0.13 µg/ml, genetic background: wild type | 2.52 | 2.37 | 2.83 | 2.65 | 2.24 | 2.59 | 2.72 | 2.7
0.13 µg/ml, genetic background: ΔmarA | 2.26 | 3.18 | 2.57 | 2.56 | 2.63 | 2.91 | 2.69 | 1.913
0.13 µg/ml, genetic background: Δrob | 2.04 | 2.27 | 2.5 | 2.39 | 1.76 | 1.59 | 2.61 | 2.48
0.13 µg/ml, genetic background: ΔsoxS | 2.36 | 2.39 | 2.54 | 2.33 | 2.4493 | 2.21 | 2.26 | 2.5
0.26 µg/ml, genetic background: wild type | 2.12 | 1.59 | 2.17 | 2.01 | 1.85 | 2.03 | 2.41 | 2.27
0.26 µg/ml, genetic background: ΔmarA | 1.1 | 2.11 | 1.52 | 1.78 | 1.94 | 1.69 | 2.34 | 1.04
0.26 µg/ml, genetic background: Δrob | 1.11 | 1.28 | 1.55 | 1.45 | 1.04 | 0.781 | 2.16 | 1.64
0.26 µg/ml, genetic background: ΔsoxS | 1.85 | 1.8 | 2.05 | 1.381 | 2.05 | 1.53 | 1.35 | 1.73
0.51 µg/ml, genetic background: wild type | 0.751 | -0.204 | 0.304 | 0.663 | 0.222 | 0.412 | 0.781 | 0.985
0.51 µg/ml, genetic background: ΔmarA | 0.0409 | -0.0341 | 0.0603 | 0.251 | -0.0503 | 0.0961 | 0.237 | 0.156
0.51 µg/ml, genetic background: Δrob | -0.162 | 0.00139 | 0.0233 | 0.047 | -0.0563 | -0.043 | 0.348 | 0.334
0.51 µg/ml, genetic background: ΔsoxS | 0.39 | 0.0771 | 0.106 | 0.0499 | -0.000138 | -0.0326 | 0.12 | 0.428
